For 61 molecules, cell number change and AC50 results are on record in PubChem BioAssay AID2685 (National Center for Advancing Translational Sciences (NCATS), 2010).

This assay can be described thus: qHTS Assay for Lipid Storage Modulators in Drosophila S3 Cells.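 On cell number change: cells counted by Cell Tracker Red CMTPX staining in the red channel.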 As to conditions: BODIPY lipid droplet fluorescence, 18-24 h; for cell number change: measured here: cell count max response, cells fed with added oleic acid. In a few lines:
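Drosophila S3 cells loaded with oleic acid (400 uM, as added) and compounds at several concentrations; lipid droplets imaged by 488-nm laser-scanning cytometry, 500–530 nm intensity and object ratio to cell channel. Percent activity normalized to 20 uM Triacsin C.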
For orientation: Quantitative high-throughput screening tests each substance at several concentrations.

Setting [1] is: measured here: lipid fluorescence (Fed channel) AC50, cells fed with added oleic acid.
The mark [2] stands for this setting: measured here: cell number channel AC50, cells fed with added oleic acid.

Where “and” joins values, the source holds several entries; their conditions need not be identical. Equal values may be shown once. This is one part of the list. The main result of the screen is listed elsewhere. These columns were measured beside it and carry no call. Compounds called inactive in the main read-out are mostly missing here. Potencies come from curve fits of mixed quality, noted in brackets. Where a SMILES comes first, the peptide text is derived from it. [ ]: non-standard residue; d: D form. The star is where a group is joined. ξ: configuration not given here. ξN = NC(=O)CC(N)C(=O)O; Boc = CC(C)(C)OC(=O)*

The AC50 is the concentration at which the activity in the assay is half-maximal.

Regarding `Cc1c(NS(=O)(=O)c2ccc(C(=O)NCc3ccc(F)cc3)cc2)c(=O)n(-c2ccccc2)n1C`, the cell number change was -4.33%. For the same molecule, the AC50 under setting [1] was 0.291 µM [falling, full curve, poor fit].

`CCOc1cc(NC(=O)c2ccco2)c(OCC)cc1NC(=O)COc1ccccc1`: the cell number change was -29.6%. The AC50 under setting [1] was 0.82 µM [rising, full curve, poor fit].

Take `COCCCNS(=O)(=O)c1cc2c3c(c1)C(C)C(=O)N3CCC2` (stereo not given): the cell number change came out at 34.4%. In addition, under setting [1], the half-maximal activity concentration (AC50) was 29.1 µM [rising, single point].

As to `CCC(=O)N1CCN(c2ccc(Cl)cc2NC(=O)Cc2ccc(Cl)cc2)CC1`, the cell number change was 0.594%.

In the case of `CC(C)(C)c1cc(NC(=O)c2cccnc2)no1`, the cell number change is -48.6%. Under setting [2], the AC50 is 25.9 µM [falling, single point]. Further, the AC50 under setting [1] is 29.1 µM [falling, single point].

Regarding `O=C(O)c1ccc(NS(=O)(=O)c2ccc(Cl)c(C(=O)Nc3ccccc3[N+](=O)[O-])c2)cc1`, the cell number change was determined as 3.67%.

Take `COc1ccc(-c2cc(C(F)(F)F)n3ncc(C(=O)O)c3n2)cc1OC`: the cell number change worked out at 14.8%.

With `CCN(CC)c1ccc(-c2n[nH]c(=S)n2-c2ccccc2)cc1`, the cell number change is -23.3%. Under setting [1], the AC50 was 7.31 µM [falling, single point].

In the case of `Cc1ccc(C(=O)NCC(=O)O)s1`, the cell number change is -23.3%. Further, under setting [1], the AC50 is 1.46 µM [falling, partial curve, poor fit].

`O=C(NCc1cccnc1)NC1(C(F)(F)F)Oc2ccc(Cl)cc2O1` (stereo not given): the cell number change was -92%. The AC50 under setting [2] is 8.2 µM [falling, partial curve]. Besides, the concentration at half-maximal activity (AC50) under setting [1] was 11.6 µM [falling, partial curve].

As to `O=C(N/N=C/c1ccccn1)c1cccc(NC(=O)c2ccc(Cl)cc2)c1`, the cell number change was -33.5%. For the same molecule, the AC50 under setting [2] is 4.61 µM [falling, full curve]. In addition, the half-maximal activity concentration (AC50) under setting [1] was 6.51 µM [falling, full curve, poor fit].

As for `CC(=O)Nc1cc(C(=O)N2CCCC2)ccc1Sc1ccc(Cl)cc1`, the cell number change was -11%. The AC50 under setting [1] was 0.82 µM [rising, full curve].

On to `Oc1ccccc1C1N=C(c2ccccc2)NC(c2ccccc2)=N1`, for which the cell number change is -68.5%.

As for `COc1ccc(-n2c(C)cc(C(=O)COc3ccc(-n4cnnn4)cc3)c2C)cc1`, the cell number change was -32.9%. In addition, the AC50 under setting [2] was 10.3 µM [falling, partial curve].

As to `CC(C)CC(=O)NC(=S)Nc1ccccn1`, the cell number change amounted to 33.4%. Further, under setting [2], the AC50 was 0.0103 µM [rising, full curve, poor fit].

`c1cncc(-c2nc3c(ccc4ccccc43)[nH]2)c1`: the cell number change was -17.5%.

In the case of `O=C(Nc1ccc(Cl)c(Cl)c1)Nc1nnc(CSc2ccccc2)s1`, the cell number change worked out at 96.6%. The AC50 under setting [2] was 9.2 µM [rising, partial curve]. The AC50 under setting [1] is 3.66 µM [falling, full curve].

`Cc1ccc(N(CC(=O)NC(C)(C)C)C(=O)CCC(=O)Nc2nccs2)cc1C`: the cell number change is -6.2%. The AC50 under setting [1] was 16.4 µM [falling, single point].

Take `O=C(CSCc1nc2ccccc2[nH]1)Nc1ccc2ccccc2c1`: the cell number change is -22.9%. The AC50 under setting [1] was 0.58 µM [falling, full curve, poor fit].

With `Cc1cccc(OCC(=O)Nc2nnc(S(=O)(=O)N3CCC(C)CC3)s2)c1`, the cell number change is -1.16%.

On to `N#CC(c1ccccc1F)(c1ncc(C(F)(F)F)cc1Cl)N1CCOCC1` (stereo not given), for which the cell number change is 0.862%.

With `Cc1cc(CNC(=O)Nc2ccc3c(c2)OCO3)nn1C`, the cell number change was 15.9%. For the same molecule, the AC50 under setting [2] is 0.366 µM [rising, full curve]. Under setting [1], the AC50 was 0.58 µM [rising, single point].

As for `O=C(CCCCC(=O)Nc1ccccc1)Nc1ccccc1`, the cell number change was found to be 19.3%. The half-maximal activity concentration (AC50) under setting [1] was 6.51 µM [rising, single point].

For the molecule `CN1C(=O)C2C=CC1C1C(=O)N(c3ccccc3)C(=O)C21` (stereo not given), the cell number change is -24.7%. Besides, under setting [2], the AC50 was 0.517 µM [falling, full curve]. In addition, the AC50 under setting [1] was 1.84 µM [falling, partial curve, poor fit].

Take `Nc1ccccc1OCCOCCOCCOc1ccccc1N`: the cell number change was 21.8%. For the same molecule, the AC50 under setting [2] was 0.651 µM [falling, partial curve, poor fit]. For the same molecule, the AC50 under setting [1] is 6.51 µM [falling, single point].

For the molecule `COC(=O)c1cccc(NC(=O)CSc2nc(=O)cc(N)n2-c2ccccc2)c1`, the cell number change came to 12.7%.

Turning to `Cc1cccc(C(=O)NNC(=O)C2CC2)c1`, the cell number change worked out at 10.3%. Also, the AC50 under setting [2] was 0.082 µM [rising, full curve, poor fit]. Further, the AC50 under setting [1] was 0.164 µM [rising, full curve, poor fit].

With `COc1ccc(Cl)cc1NC(=O)CSc1nnc(COc2ccccc2)n1C`, the cell number change was -13.6%. The AC50 under setting [1] is 1.46 µM [rising, partial curve].

`Cc1cc(C)n2nc(SCC(=O)Nc3ccc(F)cc3)nc2n1`: the cell number change is -36.6%. For the same molecule, under setting [2], the AC50 is 7.31 µM [falling, partial curve]. Further, the AC50 under setting [1] was 18.4 µM [falling, single point].

In the case of `O=C(Cn1cnc2ccc(Br)cc2c1=O)c1cccs1`, the cell number change was determined as 25%.

For the molecule `O=S1(=O)NC2CCCCCN2c2ccc(F)cc21` (stereo not given), the cell number change is -4.18%. Besides, the concentration at half-maximal activity (AC50) under setting [1] was 0.0116 µM [falling, full curve].

As for `COc1cc(NC(=O)c2cccc(F)c2)ccc1NC(=O)c1cc2ccccc2o1`, the cell number change is -39.5%. Moreover, the half-maximal activity concentration (AC50) under setting [2] is 25.9 µM [falling, single point]. The AC50 under setting [1] is 9.2 µM [falling, partial curve].

For `CCOC(=O)C(C)Sc1nc2c(c(=O)[nH]c(=O)n2C)n1Cc1ccc(Cl)cc1` (stereo not given), the cell number change stood at 121%. Moreover, under setting [2], the AC50 was 20.6 µM [rising, partial curve]. Moreover, under setting [1], the AC50 was 20.6 µM [rising, partial curve].

With `C=CCc1cccc2cc(C(=O)OCC)c(=O)oc12`, the cell number change stood at 9.24%. Also, under setting [1], the AC50 is 2.91 µM [rising, partial curve].

For the molecule `COc1ccc2c(c1OC)C(=O)N1C2SC[C@H]1C(=O)NC1CCCC1` (stereo not given in full), the cell number change was found to be 19.1%. Besides, the AC50 under setting [1] is 29.1 µM [rising, single point].

For `c1ccc2c(-c3nn4nnnc4c4ccccc34)cccc2c1`, the cell number change amounted to 63.7%. In addition, under setting [2], the AC50 is 29.1 µM [rising, single point].

As to `O=C(CN1CCN(c2ccccc2)CC1)Nc1ccccc1Cl`, the cell number change was -55.7%.

For the molecule `COc1ccccc1N1CCN(S(=O)(=O)CC23CCC(CC2=O)C3(C)C)CC1` (stereo not given), the cell number change is -132%. For the same molecule, under setting [1], the AC50 is 2.59 µM [falling, single point].

`CC(=O)CC1OC(=O)C(Br)=C1NCc1ccccc1` (stereo not given): the cell number change was -11.8%. The AC50 under setting [2] was 0.00461 µM [falling, full curve, poor fit]. For the same molecule, the AC50 under setting [1] is 0.651 µM [falling, full curve].

Turning to `Cc1cccnc1Nc1nc(-c2ccc(O)cc2)cs1`, the cell number change is 17.5%. Further, the concentration at half-maximal activity (AC50) under setting [2] is 0.366 µM [rising, full curve, poor fit].

For `CCOC(=O)C1(CCOc2ccccc2)CCN(Cc2ccc(OCCO)cc2)CC1`, the cell number change is -8.99%. Further, the AC50 under setting [1] was 0.00461 µM [rising, full curve, poor fit].

With `CN(Cc1ccccc1)S(=O)(=O)c1ccc(Cl)c(C(=O)OCC(N)=O)c1`, the cell number change stood at 20.9%.

`COc1ccc(C(C)NC(=O)c2ccccc2Br)cc1OC` (stereo not given): the cell number change was found to be 4.18%.

As to `CCC(CC)C(=O)Nc1cccc(C(=O)NCCc2ccccc2)c1`, the cell number change was found to be 27.4%. Moreover, the AC50 under setting [1] is 2.91 µM [rising, single point].

Take `CC1=C(C)CC(C(=O)NC(C)CCc2ccccc2)C(C(=O)O)C1` (stereo not given): the cell number change came to 107%.

On to `Cc1cccc(NC(=O)c2cc(S(=O)(=O)N3CCCCC3)ccc2Cl)n1`, for which the cell number change was -36.1%. Under setting [2], the AC50 was 2.06 µM [falling, full curve, poor fit].

For the molecule `O=C(CNc1ccc2c(c1)OCO2)N/N=C\c1cn(Cc2ccc(F)cc2)c2ccccc12`, the cell number change is -11.2%. In addition, under setting [1], the AC50 was 29.1 µM [falling, single point].

On to `CS/C(=N\S(=O)(=O)c1cccs1)NC(=O)CSc1nc2ccccc2s1`, for which the cell number change came to 13%. The AC50 under setting [2] was 0.184 µM [rising, full curve, poor fit].

For `CCc1ccc(N=CC23c4ccccc4C(c4ccccc42)C2C(=O)N(c4ccc(OC)cc4)C(=O)C23)cc1` (stereo not given), the cell number change is 9.2%.

`CC(=O)c1ccccc1NC(=O)COC(=O)c1cc(C)oc1C`: the cell number change was determined as 4.17%. For the same molecule, under setting [2], the half-maximal activity concentration (AC50) is 4.61 µM [rising, single point]. The AC50 under setting [1] was 2.31 µM [rising, partial curve].

Consider `CCNc1nc(C)nc2c1oc1ccccc12`, for which the cell number change is -16.2%. Also, the AC50 under setting [1] was 6.51 µM [rising, partial curve].

Regarding `COc1ccc(CCc2nc(C)ccc2O)cc1`, the cell number change is 15.5% and -5.02%. Under setting [1], the AC50 was 517 nM [falling, single point] and 14.6 µM [rising, partial curve, poor fit].

`CCOc1ccccc1OCCCC(=O)N1CCN(S(=O)(=O)c2cccc(F)c2)CC1`: the cell number change is 8.41%. In addition, the AC50 under setting [1] is 16.4 µM [rising, partial curve].

As for `C=CCNC(=O)N1CCC(n2nccc2NC(=O)CCCc2ccccc2)CC1`, the cell number change was determined as 13.5%. The AC50 under setting [1] was 0.116 µM [rising, single point].

`N#C/C(=C/c1ccc(N2CCCCC2)o1)C(=O)Nc1ccc(Cl)cc1`: the AC50 under setting [1] was 0.58 µM [falling, single point].

In the case of `Cc1cccc(N2CCN(C(=O)N3CCOCC3)CC2)c1C`, the cell number change is 19.8%. Besides, the AC50 under setting [1] is 18.4 µM [rising, partial curve, poor fit].

Take `O=C(NCc1ccncc1)C1CCC(=O)N(CCc2ccc(Cl)cc2)C1` (stereo not given): the AC50 under setting [1] is 7.31 µM [rising, partial curve, poor fit].

`c1ccc(C2(CN3CCNC[C@H]3Cc3cccc4ccccc34)CC2)cc1`: the cell number change is -69.3%. Also, the AC50 under setting [2] was 18.4 µM [falling, single point]. For the same molecule, the AC50 under setting [1] was 18.4 µM [falling, single point].

As for `Cc1ccccc1NC(=O)Cc1nnc(SCC(=O)Nc2ccccc2)n1C`, the cell number change was determined as 14.2%.

In the case of `C=CCOc1ccc(/C=N/NC(=O)C(C)Sc2ccccn2)cc1OC` (stereo not given), the cell number change was found to be 10.9%. Also, the AC50 under setting [1] is 5.8 µM [rising, partial curve, poor fit].

Consider `CCOC(=O)CNC(=O)C(CC(N)=O)NC(=O)OC(C)(C)C` (stereo not given) (Boc-[ξN]-Gly-OEt), for which the cell number change is -52.8%. Under setting [2], the AC50 was 18.4 µM [falling, partial curve]. Also, the AC50 under setting [1] is 16.4 µM [falling, partial curve, poor fit].
